Test results as given in article PMC7677368.
Results are given in words; binding and its absence hold for the method and conditions named. In cells and extracts the contact can be indirect. A yes stands for co-enrichment or nearness to the bait. Other partners may have been found. For some assays here: A no says only that the protein was not detected with the bait. For some assays here: Sequences can lack the tags named with a protein.

By UniProt entry, the sequences of proteins in these tests, tags left out. Where a name states a change or a piece, a line headed by the entry shows the natural chain unless it says otherwise.
UniProt Q03919: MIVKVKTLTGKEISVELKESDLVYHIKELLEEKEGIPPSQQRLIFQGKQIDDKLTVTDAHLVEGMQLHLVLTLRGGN
UniProt Q7KQL3: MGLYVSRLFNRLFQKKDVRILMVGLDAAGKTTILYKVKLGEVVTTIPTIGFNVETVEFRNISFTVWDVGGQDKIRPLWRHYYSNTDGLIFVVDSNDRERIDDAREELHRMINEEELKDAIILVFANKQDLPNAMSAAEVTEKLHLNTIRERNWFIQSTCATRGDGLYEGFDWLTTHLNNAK
UniProt Q8I3V5: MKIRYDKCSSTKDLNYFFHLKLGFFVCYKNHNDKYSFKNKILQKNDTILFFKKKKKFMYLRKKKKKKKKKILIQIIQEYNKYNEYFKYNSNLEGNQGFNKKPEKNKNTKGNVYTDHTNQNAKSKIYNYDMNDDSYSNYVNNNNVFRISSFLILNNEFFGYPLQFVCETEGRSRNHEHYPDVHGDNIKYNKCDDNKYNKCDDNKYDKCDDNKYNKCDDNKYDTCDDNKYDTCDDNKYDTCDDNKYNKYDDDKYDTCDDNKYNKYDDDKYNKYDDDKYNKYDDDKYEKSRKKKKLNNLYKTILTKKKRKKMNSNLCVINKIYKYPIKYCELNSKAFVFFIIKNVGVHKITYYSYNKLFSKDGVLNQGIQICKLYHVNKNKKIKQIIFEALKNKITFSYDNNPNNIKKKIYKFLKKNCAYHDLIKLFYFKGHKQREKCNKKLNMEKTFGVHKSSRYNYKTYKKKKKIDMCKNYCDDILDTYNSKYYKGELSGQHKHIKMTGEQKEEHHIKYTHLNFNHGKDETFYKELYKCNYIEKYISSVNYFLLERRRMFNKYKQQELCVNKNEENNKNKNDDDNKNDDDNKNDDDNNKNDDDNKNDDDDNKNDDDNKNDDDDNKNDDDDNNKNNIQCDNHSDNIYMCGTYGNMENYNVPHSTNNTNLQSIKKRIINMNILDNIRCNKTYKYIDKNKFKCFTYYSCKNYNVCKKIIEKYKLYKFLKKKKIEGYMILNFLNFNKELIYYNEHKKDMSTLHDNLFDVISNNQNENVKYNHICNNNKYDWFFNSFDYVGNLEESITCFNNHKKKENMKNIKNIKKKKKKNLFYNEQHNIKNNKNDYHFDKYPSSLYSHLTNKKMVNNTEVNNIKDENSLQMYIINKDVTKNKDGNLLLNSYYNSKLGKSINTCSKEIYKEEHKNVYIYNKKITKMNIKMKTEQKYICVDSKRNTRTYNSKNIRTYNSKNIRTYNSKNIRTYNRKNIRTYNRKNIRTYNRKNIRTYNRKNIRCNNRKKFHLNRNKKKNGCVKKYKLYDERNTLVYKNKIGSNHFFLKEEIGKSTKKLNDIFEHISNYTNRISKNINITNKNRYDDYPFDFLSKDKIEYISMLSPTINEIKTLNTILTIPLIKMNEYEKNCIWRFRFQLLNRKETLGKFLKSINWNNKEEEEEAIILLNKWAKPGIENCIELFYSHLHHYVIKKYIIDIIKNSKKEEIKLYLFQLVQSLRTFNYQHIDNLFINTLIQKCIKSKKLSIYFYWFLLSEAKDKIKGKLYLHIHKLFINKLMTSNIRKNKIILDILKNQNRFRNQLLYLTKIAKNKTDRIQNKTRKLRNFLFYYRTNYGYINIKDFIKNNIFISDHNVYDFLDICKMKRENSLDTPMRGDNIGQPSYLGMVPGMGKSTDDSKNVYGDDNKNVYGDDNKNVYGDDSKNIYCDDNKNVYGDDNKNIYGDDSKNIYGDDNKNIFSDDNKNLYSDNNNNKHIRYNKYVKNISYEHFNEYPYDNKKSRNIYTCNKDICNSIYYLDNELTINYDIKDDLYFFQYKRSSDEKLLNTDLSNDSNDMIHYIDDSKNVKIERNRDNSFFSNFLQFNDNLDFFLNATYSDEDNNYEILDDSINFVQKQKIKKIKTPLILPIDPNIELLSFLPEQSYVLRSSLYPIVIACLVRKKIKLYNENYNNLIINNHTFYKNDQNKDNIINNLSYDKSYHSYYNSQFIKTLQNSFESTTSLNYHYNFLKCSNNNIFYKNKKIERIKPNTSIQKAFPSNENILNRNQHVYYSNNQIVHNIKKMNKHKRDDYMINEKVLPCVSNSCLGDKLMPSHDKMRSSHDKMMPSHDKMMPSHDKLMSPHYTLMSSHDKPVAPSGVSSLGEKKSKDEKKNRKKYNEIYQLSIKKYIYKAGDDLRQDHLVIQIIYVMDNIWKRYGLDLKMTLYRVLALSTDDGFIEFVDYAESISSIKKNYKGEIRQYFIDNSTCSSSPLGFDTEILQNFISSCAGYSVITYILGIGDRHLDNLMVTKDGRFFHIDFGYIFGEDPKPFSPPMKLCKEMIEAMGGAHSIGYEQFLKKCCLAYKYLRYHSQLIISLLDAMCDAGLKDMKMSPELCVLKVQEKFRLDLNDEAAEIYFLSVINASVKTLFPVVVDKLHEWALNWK

Legend:
[1] = target: T1, HA-tagged PfNEDD8 expressed episomally in P. falciparum (P. falciparum) (UniProt Q8IEI4); assay: affinity purification with mass spectrometry; lysates of HN8-expressing P. falciparum parasites (0.5% Triton X-100, 150 mM NaCl, pH 7.5) immunoprecipitated with rabbit anti-HA antibodies and protein A/G magnetic beads at 4 °C; wild type parasites as control; eluate by LC-MS/MS
T1 sequence: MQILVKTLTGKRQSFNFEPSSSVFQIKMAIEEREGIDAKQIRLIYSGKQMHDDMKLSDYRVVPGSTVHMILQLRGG

[2] = target: T2, recombinant SUMO-PfNEDD8 (PfNEDD8 as a C-terminal fusion of His-tagged SUMO) (P. falciparum) (UniProt Q8IEI4); assay: affinity purification with mass spectrometry; control of the in vitro neddylation reaction without ATP (parasite extract and SN8, 37 °C, 1 h), then Ni-NTA isolation and LC-MS/MS; only the target purified
T2 sequence: T1 sequence

[3] = target: T2, recombinant SUMO-PfNEDD8 (PfNEDD8 as a C-terminal fusion of His-tagged SUMO) (P. falciparum); assay: affinity purification with mass spectrometry; in vitro neddylation reaction (100 μg soluble P. falciparum extract, 1 μg SN8, 5 mM ATP, 50 mM Tris-Cl, 0.5 mM DTT, MgCl2, pH 7.5, 37 °C, 1 h), then SN8 and what is with it isolated on Ni-NTA resin (washes with 150 mM NaCl, 10-50 mM imidazole), eluate by LC-MS/MS; only the target purified
[4] = target: N-terminal 2xHA-tagged S. cerevisiae Rub1 expressed in S. cerevisiae rub1Δ (S. cerevisiae) (UniProt Q03919); assay: affinity purification with mass spectrometry; lysates of rub1Δ[HA-PfN8] and rub1Δ[HA-rub1] S. cerevisiae (0.5% NP-40, 150 mM NaCl, pH 7.5) immunoprecipitated with mouse anti-HA antibody on protein A/G magnetic beads, overnight at 4 °C; wild type strain as control; eluate by LC-MS/MS
[5] = target: T3, N-terminal 2xHA-tagged PfNEDD8 expressed in S. cerevisiae rub1Δ (P. falciparum) (UniProt Q8IEI4); assay: as above
T3 sequence: T1 sequence

P. falciparum ADP-ribosylation factor 1 (from UniProt Q7KQL3 1-181)
binding [1]: binds

P. falciparum ER lumen protein retaining receptor 1
binding [2]: no binding (only without ATP)
binding [3]: binds

P. falciparum phosphatidylinositol 3-kinase (from UniProt Q8I3V5 1-2133)
binding [2]: no binding (only without ATP)
binding [3]: binds

B1: P. falciparum cullin-like protein (renamed cullin-2) (protein, UniProt C6KTD3 1-1129)
chain: MDPTAVNNYPVFYVKNKDFLNVDNEHIRCSLKRFEEYIHECFSILPYNKIKIQNEEKISVQHFCDVLVFNQCEQIICAIIEKECNEKTKQFFEEVEIRIKNEEFKNGEEEFLKLFVSIWNNFSLVLIHISDILQSFIAYTKNMCCNFFDPTQIFNYLWKKYINQYVIIKNMFISSICNYLTYDKIYCETYFYEYVCVNICNKYATKRYNLKKNQINYIERLQNIQKNYQVNNEATNKQTNKINKKDCINKKEIPTENITYKTKEEEHIQRGDHNNNNNYNNSYDNNNYSDDIYNSNPYLDDTNHEYKNTQKKKKINDKVLSLSIKISDILNLYDDFERIYKNETYTFYKEKIEKYKKDMETLGYEECNFDFPIIVENYLCHEQIRSRKFLKEHTEITILNMLKDLLLVKNRDVLFKDSYIKYCIIKEKYDPLRSVYLYSLNLDDLENFSNIFFNVVDNIGTELVNDVINKRNNSSLLNNAIIKLINFKLNVDRIIIMSFRYSSYFMKKWREVFEHFINKGIQAETYMPIILSMYLNNLLTMYNACLRKLKKYYILNKKIKNNRSLFNNLLFEVDWNNYCTQPISETIDFYDISTDSDNMLGIKKYLRKKRKNTKKDLINFEHEEEYVKRKHMDNNIHNNDHNDNIYFNNNLYFNNDYHNNLYYDSLNINKRSDEKIFFHLLKIDKLFKKYHIIGKYIMNMITVILSLFRYVSDKEKFEKYYRTYMCKRLINDSSFNIILDVKVFKTLKKECGAQFTKKIEIILKDMKFTSKTLMKFYKELPNNVNHFLKRKKYAVNIIFNESWEYVNTENNVIYPPMIKMCNEAFFLFYQKYNKSKNIKFLPLLGLCTLRVHFKNFKEEGSFDLGKRDDNNDEKRDDNNDEKRDHNNIEKRDDNNIEKRDDNNIEKRDDNNIEKRDDNNDEKRDENNDKKRDENNNYSDDNDDDLNNEDSSSTYNKKGKKKIYITVTILQALVLLLFNKKNEYHINEIKELTGISTENIIRYLKTIYTIGETHILIYDKANEILKLNFSFRSKKKFLIVNYNDVLYKDDMGPTTSLLNEDNEIEDKTLHIDAAIVKFLKTNGKSSERKICSFIKDKMDISSNEQIKNRISSLLSREFIFFKNNNYHYEL
binding [2]: no binding (only without ATP)
binding [3]: binds
binding [1]: binds

B2: P. falciparum suppressor of kinetochore protein 1 (protein, UniProt Q8ID38 1-162)
chain: MKNDKIKLVSFEGDEFIVDKNTASMSTVIMNILEVMTAEEDTIPLPNIKTPILKKIIEYMEYHINNPADEIPKPLITSNLQDVVSSWDFDFVNTDKETLYELIEASNYLDIKPLLDLTCGKIASMMKDKTTEEIRAEFDIVNDFTREEEKQIREENRWCGDI
binding [2]: no binding (only without ATP)
binding [3]: binds

B3: P. falciparum coatomer subunit delta (protein, UniProt Q8II16 1-487)
chain: MTVLSAVISTKSKILVSRQFRNISKCDLDSLTIPFHNLIERERSDHTYIETDKVRYVYQPLDNIYIFLITNINSNIIEDLEIIKVLSQIIQDICQGNINESTILKKCFTIIFYIDELIKNGVREIVNSNQIKTYIEMESHEEKLQTIIRENKEKEEKERRKFIASKLEKNRQKQSKVSSNSFLSNDLINNLEYTNNIDMYKTEEQDIIDESFNTYKGMQLTSNKKENIRILNVVEHKVDTKPHINVNSIFDKPINIIITENIICTLSSEGTLCDLDIQGTFNLQINNHNYSKVIVELDNEYSEKAKIHPILDKNKYNSNILELKDKSKNFRINTIYPLLKWKINHINDSYIPLNISCWPCEDNESTLLSLEIENKRNNNDELIYDLNVNLMCPSAHKPQIISNDKGIIEHDGVLLAWKVDELKNNQSCQIEMSIQANPESVFPFSVEAKSNMLAHKLNVLKVYDEDTKKDIEYEIKKNITYLFTINK
binding [2]: no binding (only without ATP)
binding [3]: binds

B4: P. falciparum cullin-1 (protein, UniProt Q8IAU5 1-829)
chain: MDIVNINFESGWKIIREEAIEKIEKYLENEHIEKNKNLFSATEYTRLYTVVYNMCAKKNPFCYSKEVYRKYGESLSMYTIDKIKPLLKNSDELNKTKILIDAWFKYSFYTKWMNKFLRYLDRYYVEYNSSLCLSAYTKNIFKITLFNELREDIKNIIYEIYNNLRLQEEIDQKELFCNIVELYKELDNESNEKMYEHDIEKKIVENVNNFYKKKAEEWINDYPFDDYIISIENAIEKEYEKNKSLNLNDDTCEKVTNIIVKILIYEKLNTLIDNKNNIFHLLKNNNLSSLRRTYILFSYFPEALTGLKKIIGEYIKMEGNELKDKYVQLSRKMHMSKNVNNMQNVDDNTMEDNDNYIDISNDDNNNNDNSNNNNIMNTEQNDDIILCDYIEQLIKLHNHYDNIFKLSFFNISNKNIDPNFNECLKDYFESFVEHEDEYFSTVKLLVIYTDNILKRDLNNENSVDEKQKIHMNKEEKNDEQTKFLMKKMSEIVEIFNYTSNKETFFEYYRVYLANRLINNIYISLHIEKKFIEQLYYLCGSQYTSKLGGMIQDLINNTNMNNKFYDHMKNVFNNNEIVNNNNNNSIYNDHFSNYHNVKDFFSVKILNKGYWPTLEKIHIQLNEPFNKYIQVFEEYYKSENKNRKLEWIYELSEVILHYEFNNILYNLYCNVVNAQILLLFNKYKYINYDIVKNELQIDLKSFTDHMYTSFYHFKLITSNDQIPDWTNSNFYINNNFSYPNKNVYIKKTTALLSKEHEKTKEDRTMAIEAAIVRVMKMHKKLFYDQIFDYVKKSLSSFSPTNQVIEKKIDLLVEREYIQKEENSQIYVYIP
binding [2]: no binding (only without ATP)
binding [3]: binds
binding [1]: binds

B5: S. cerevisiae SCF-associated factor 1 (protein, UniProt P38352 1-637)
chain: MSEVESREKEPDAGLSPDIVQATLPFLSSDDIKNLSQTNKYYNTLLDFDHSKILWHELFHKAFGTLKTNDEPFQGRNSAEFKTCTETILREAFPTLSWQEVYQLRAYDAKFYSWGYLKHGRLGYTASSNNELVATSLNGPSPRFKYGVNTPTEVPWFNSRTTSRTSNFTPSEDPLSAIKKDGDEIIAQVSSGGFSFQILTESGNLYSSGSTFSGGLKGPGPSGSQHDYNPFREMIHNMERSYPRITSRSNGSTVNTTGTFSGRRMSGSHPSTAYEPGNATTAQHITIDSGGAPAASPGGSHSGVPRTTMPSMGPHENIYSQIEMLERSANKAVPGNNHIRRMFARNSFPLYSGRDENLGSFNDIQFVAVSSGRSHFLAMDTDNNIYSWDSTESDQGVKIEFANLPSRATNPILKIASGWNFNCCYIYKVGLVAWKERDAIQKGESFAFAKYEIVPNTNDVNGDSRIVDFACLQDNCVFFINNNGDKLWKYHNGLNQIVDLNIVGKLCKINACFASLVLFTDTHCYTLKVTNGDVDKDSLTELDINENVISVASGDYHTVALTERGHLYSWGIESQDCGCLGLGPSEKIVNELHIGNWEGQRNIRVVKPTKIELPEDYICVSVTAGGWQTGALIIKKH
binding [4]: binds
binding [5]: binds
